From paper PMC6639381
These are yes or no findings as the source states them, for the method shown. Binding seen in cells or lysates may run through a third protein. Some results given as binding are weak or reduced against the parent protein; the word gives no strength. Sequences can lack the tags named with a protein.

Target: T1, Myc-RARγ (full-length RARγ in pCMV-Myc) (UniProt P13631)
T1 sequence: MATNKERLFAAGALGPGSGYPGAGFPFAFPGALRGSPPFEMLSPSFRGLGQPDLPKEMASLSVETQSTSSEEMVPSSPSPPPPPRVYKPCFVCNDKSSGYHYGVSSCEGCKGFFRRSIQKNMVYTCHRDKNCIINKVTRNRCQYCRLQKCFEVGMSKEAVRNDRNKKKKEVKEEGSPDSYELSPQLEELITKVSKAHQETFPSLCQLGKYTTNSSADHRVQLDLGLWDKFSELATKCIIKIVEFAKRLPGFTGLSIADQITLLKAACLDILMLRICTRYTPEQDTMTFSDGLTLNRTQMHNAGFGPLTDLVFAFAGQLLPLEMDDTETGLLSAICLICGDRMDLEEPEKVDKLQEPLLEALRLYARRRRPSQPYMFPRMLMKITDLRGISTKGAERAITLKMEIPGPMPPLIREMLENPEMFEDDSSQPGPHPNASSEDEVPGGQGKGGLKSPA
Test: co-IP; HEK293 cells transfected with Myc-RARγ and Flag-FBXO30 or Flag-tagged FBXO30 truncates; immunoprecipitated with anti-Myc, blotted with anti-Flag and anti-Myc

- binding: binds
B1: FBXO30-F-box (110–745), Flag-tagged (domain or fragment, UniProt Q8TB52 110-745)
chain: LSRDVDEVAQLDMALALQDQRMLLESLKVATMMSKATDKVSKPREQISVKSSVPEIPHANGLVSVDEESYGALYQATVETTRSLAAALDILNTATRDIGMLNTSVPNDMDEQQNARESLEDQNLKDQDHLYEEEIGAVGGIDYNDTNQNAQSEQNGSSDLLCDLNTSSYDTSALCNGFPLENICTQVIDQNQNLHGDSKQSNLTNGDCVASSDGTSKPSSSLAVAAQLREIIPSSALPNGTVQHILMPDDEGEGELCWKKVDLGDVKNVDVLSFSHAPSFNFLSNSCWSKPKEDKAVDTSDLEVAEDPMGLQGIDLITAALLFCLGDSPGGRGISDSRMADIYHIDVGTQTFSLPSAILATSTMVGEIASASACDHANPQLSNPSPFQTLGLDLVLECVARYQPKQRSMFTFVCGQLFRRKEFSSHFKNVHGDIHAGLNGWMEQRCPLAYYGCTYSQRRFCPSIQGAKIIHDRHLRSFGVQPCVSTVLVEPARNCVLGLHNDHLSSLPFEVLQHIAGFLDGFSLCQLSCVSKLMRDVCGSLLQSRGMVILQWGKRKYPEGNSSWQIKEKVWRFSTAFCSVNEWKFADILSMADHLKKCSYNVVEKREEAIPLPCMCVTRELTKEGRSLRSVLKPVL
